Results published in the supplement of paper PMC11150407.
The whole screen tested about 3,000 compounds, of which about 45 (2%) showed an effect of 50% or more. This is one part of the list.

Tested on: MOLM1 and UCSD/AML1 (averaged)
Assay: cell viability relative to DMSO control (POC); higher = less growth inhibition
Conditions: 1 µM; 72 h
Protocol: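 Primary viability screen in the 3q26 EVI1-high AML cell lines MOLM1 and UCSD/AML1, compounds at 1 uM for 72 h. ATP CellTiter-Glo read-out given as percent viable over DMSO control (POC), averaged over duplicates. This mapping covers the TimTec NDL-3000 natural derivative library, whose compounds are identified by TimTec catalogue codes (ST...).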

SMILES | cell viability [%]
CC(=O)OC1CCC2(C)C(CCC3(C)C2C(=O)C=C2C4CC(C)(C(=O)Nc5ccc(Cl)c(Cl)c5)CCC4(C)CCC23C)C1(C)C (centres undefined) | 104
CCOC(=O)c1sc(N2N=C(C)/C(=C\c3ccc4c(c3)OCO4)C2=O)nc1C | 86.8
COc1ccc(/C=C/C(=O)c2ccc(NC(C)=O)cc2)cc1OC | 89.8
O=C(O)/C=C/c1ccc(S(=O)(=O)N2CCCC2)cc1 | 101
CCc1c(-c2ccccc2)n(-c2cccc(Cl)c2)c2nc3c(c(=O)n(C)c(=O)n3C)n12 | 97.4
CC(C)c1ccc(/C=C/C(=O)N2CCC3(O)CCCCC3C2c2ccc(F)cc2)cc1 (centres undefined) | 77.9
O=c1oc2cc(O)ccc2cc1-c1cccc(Cl)c1 | 96.1
O=C(Nc1c(C(=O)Nc2ccccc2)c2ccccc2[nH]c1=O)c1ccccc1 | 99.5
Cc1ccc(-n2c(SCC(=O)Nc3cccc(C)c3C)nc3c(=O)[nH]cnc32)cc1 | 97.8
O=C(O)CNC(=O)c1cccc(F)c1 | 110
CCCCOc1ccc(C2=NOC(=O)/C2=C\c2cccc([N+](=O)[O-])c2O)cc1 | 107
COc1ccc(-c2nc(CSc3nc4c(=O)[nH]cnc4n3-c3ccc(C)cc3)c(C)o2)cc1OC | 111
COc1cc(C2C3CCCCC3(O)CCN2Cc2ccccc2Cl)ccc1O (centres undefined) | 97.2
COc1ccc2c(c1)c(CC(=O)NCc1cc(OC)c(OC)c(OC)c1)c(C)n2C(=O)c1ccc(Cl)cc1 | 99
O=C(CSc1nc2ccccc2c(=O)[nH]1)Nc1ccc(F)cc1 | 93.9
CCOc1ccccc1NC(=O)CSc1nc2ccccc2c(=O)[nH]1 | 101
CCN(CC)c1ccc2[nH]c3c(C(N)=O)cc(=O)c(=O)c=3oc2c1 | 3.99
CCCC(=O)Oc1ccc2c(C)cc(=O)oc2c1 | 93
CCc1cccc2c(CCNC(=O)c3ccccc3OC)c(C)[nH]c12 | 101
O=[N+]([O-])c1cc(NC2CC(O)C(O)CO2)cc(Sc2ccccc2)c1 (centres undefined) | 93.6
Nc1[nH]c(=O)nc2nc[nH]c12 | 99
O=C(/C=C/c1ccccc1)c1ccc(O)cc1O | 96.7
COc1cc(C2C3CCCCC3(O)CCN2CC(=O)Nc2cccc3ccccc23)ccc1O (centres undefined) | 100

6 compounds out of the list, arranged by formula weight, descending:
SMILES | cell viability [%]
CC(=O)OC1CCC2(C)C(CCC3(C)C2C(=O)C=C2C4CC(C)(C(=O)Nc5ccc(Cl)c(Cl)c5)CCC4(C)CCC23C)C1(C)C (centres undefined) | 104
COc1cc(C2C3CCCCC3(O)CCN2Cc2ccccc2Cl)ccc1O (centres undefined) | 97.2
CCCCOc1ccc(C2=NOC(=O)/C2=C\c2cccc([N+](=O)[O-])c2O)cc1 | 107
O=C(CSc1nc2ccccc2c(=O)[nH]1)Nc1ccc(F)cc1 | 93.9
O=C(/C=C/c1ccccc1)c1ccc(O)cc1O | 96.7
O=C(O)CNC(=O)c1cccc(F)c1 | 110

(listing goes on)

SMILES | cell viability [%]
COC(=O)C(CCCCNC(=O)c1ccc([N+](=O)[O-])cc1)NC(=O)c1ccc([N+](=O)[O-])cc1 (centres undefined) | 92.6
COc1cc(OC)cc(C(=O)c2ccc(C(=O)Nc3ccc4ncccc4c3)cc2)c1 | 93.5
CCOC(=O)CNC(=O)c1ccc(Cl)cc1Cl | 105
COC(=O)/C=C/c1cccc(NS(C)(=O)=O)c1 | 99.1
Cc1ccc2oc(=O)c([N+](=O)[O-])c(O)c2c1 | 106
O=C(O)CCCCCCCCCCC(=O)CCCCC(=O)O | 97.6
COC(=O)c1ccc(NC(=O)C2Cc3ccccc3CN2S(=O)(=O)c2cccs2)cc1 (centres undefined) | 92.8
CC1(C2(O)CCCCC2)NCCc2ccccc21 (centres undefined) | 100
O=C(O)c1ccc(CSc2ncnc3nc[nH]c23)cc1 | 102
O=C1ON=C(c2ccc(Br)cc2)/C1=C/c1ccc2c(c1)OCO2 | 94.5
COc1cc(C(=O)NC(C(=O)O)C(C)C)cc(OC)c1OC (centres undefined) | 103
COc1cc(C(O)C(=O)O)ccc1O (centres undefined) | 102
Cc1nc2c(nc(SCC(=O)Nc3cccc(F)c3)n2C)c(=O)[nH]1 | 98.5
CCN(C(=O)CSc1nc2c(=O)[nH]cnc2n1-c1ccccc1)c1ccccc1 | 94.7
Cc1nc2c(nc(SCc3nc(-c4ccccc4)oc3C)n2C)c(=O)[nH]1 | 97.8
O=c1ccoc2ccccc12 | 93.1
COC(=O)c1ccccc1SCc1c(OC)c(OC)c(OC)c2c1C(=O)OC2 | 110
COc1cc(C(=O)Nc2cccc3cccnc23)c(Br)c(OC)c1OC | 100
N#Cc1cc2ccccc2oc1=O | 99.8
Cc1ccc(N=Cc2c(O)c3ccccc3oc2=O)c(C)c1 | 99.6
O=C(O)C1C2CC3C(OC(=O)C31)C2Cl (centres undefined) | 98.3
CCn1c(SCC(=O)Nc2ccc(C)cc2C)nc2c(=O)[nH]cnc21 | 106
COc1ccc(/C=C/C(=O)C2CC2)cc1COc1ccc([N+](=O)[O-])cc1 | 95.1

SMILES | cell viability [%]
Cc1ccc(-n2c(SCc3ccc(F)cc3)nc3c(=O)[nH]cnc32)cc1 | 105
COc1cc2c(cc1OC)C(CC(C)C)=NCC2 | 82.3
COc1ccc(C2c3[nH]c4ccccc4c3CCN2Cc2ccc(F)cc2)cc1 (centres undefined) | 82.7
COc1cc(OC)cc(C(=O)Nc2ccc3oc(-c4ccccc4Cl)nc3c2)c1 | 94.3
CCOC(=O)c1ccc(NC(=S)NC2OC(COC(C)=O)C(OC(C)=O)C(OC(C)=O)C2OC(C)=O)cc1 (centres undefined) | 106
CCOC(=O)c1c(Cn2cnnn2)n(-c2ccccc2)c2cc(Br)c(OC)cc12 | 80.7
O=c1c(O)c(-c2cccnc2)oc2ccc(Cl)cc12 | 94.7
O=C(CSc1nc2c(=O)[nH]cnc2n1CC1CCCO1)Nc1ccc(F)c(Cl)c1 (centres undefined) | 97.3
COC(=O)c1ccc2c(c1)C(=O)/C(=C\c1ccc(OCCC(C)C)c(OC)c1)O2 | 95.6
COC(=O)C1=C(C)NC2=C(C(=O)CC(C)(C)C2)C1c1cccc(Br)c1 (centres undefined) | 109
CCOc1ccccc1C1CCCC2(O)CCN(CC(=O)NCc3ccco3)CC12 (centres undefined) | 99.5
Cc1ccc(C)c(N2CCN(Cc3cc(=O)oc4cc(C)cc(C)c34)CC2)c1 | 107
O=C(Cn1c(=O)cc(C(=O)N2CCCCC2)c2ccccc21)Nc1ccccc1Cl | 89.4
COc1ccc(-c2c(-c3ccccc3)c3ccc(O)cc3oc2=O)cc1 | 93.5
C=C1C(=O)OC2CC3(C)C(O)CC(O)C(=C)C3CC12 (centres undefined) | 98.3
COc1cc(/C=C2\C(=O)N(CCc3ccccc3)C(=O)c3ccccc32)cc(OC)c1OC | 98.6
Nc1nc2ncc(=O)[nH]c2c(=O)[nH]1 | 106
O=C(CSc1nc2ccccc2c(=O)[nH]1)Nc1cc(F)ccc1F | 103
Cc1[nH]c(=O)[nH]c(=O)c1Br | 98
Cc1ccc(NC(=O)CSc2nc3ncnc(N)c3[nH]2)cc1 | 99.3
COCCOC(=O)c1c(C)n(CCCNc2ccc([N+](=O)[O-])cc2)c2c1cc(O)c1ccccc12 | 94.9
Cc1ccc(OCCn2c(=S)[nH]c3c(N)ncnc32)cc1 | 98.6
COc1ccc(C(=O)Nc2ccc(OCc3ccccc3)cc2)cc1OC | 97.4
